Measurements published in PubChem BioAssay AID330 (DTP/NCI, 2004).
The list is a part of this screen's results and no random one: it gathers tests that were run many times, whatever their T/C, doses with no T/C, and many T/C values between a quarter and a half above the control. Other doses and runs of a compound stand elsewhere. T/C: endpoint of the treated group in % of that of the vehicle group. Some entries give survivors of the animals treated and no T/C: the source holds a T/C of zero for them, seemingly a mark for toxic or unscored doses. Some doses without a T/C left all or most animals alive at the check, yet need not have been tolerated: the source hardly ever lists a survival T/C far under the control, and the zero likely stands for such cases as well. Survivors were counted at the toxicity check, usually on the fifth day, unless a day is given; later deaths do not show. Schedules are NCI's codes, taken here to give the interval after Q, in days (D) or hours (H), and the number of doses after X. Some doses were run more than once; their values stand side by side, smallest first. Where survival is the endpoint, the PubChem record calls one and a half times the control and up active, and a quarter to a half above the control has no call in these data; cut-offs in other NCI protocols can differ. Some T/C values are followed by the survivors on the day toxicity was checked, most often the fifth; without a count, all were alive then.

System: P388 leukemia ip, CD2F1 mice, survival T/C
Experiment: NCI In Vivo Anticancer Drug Screen. Data for tumor model P388 Leukemia (intraperitoneal) in CD2F1 (CDF1) mice
Conditions: T/C endpoint: median survival time, higher T/C = longer survival
[1] = dose: 200.0 mg/kg/injection, schedule: Q01DX009 (ip), vehicle: saline with Tween-80
[2] = dose: 200.0 mg/kg/injection, schedule: Q01DX005 (ip), vehicle: saline
[3] = dose: 25.0 mg/kg/injection, schedule: Q01DX009 (ip), vehicle: saline with Tween-80
[4] = dose: 100.0 mg/kg/injection, schedule: Q01DX009 (ip), vehicle: saline with Tween-80
[5] = dose: 200.0 mg/kg/injection, schedule: Q01DX009 (ip), vehicle: saline
[6] = dose: 240.0 mg/kg/injection, schedule: Q01DX005 (ip), vehicle: saline with Tween-80
[7] = dose: 50.0 mg/kg/injection, schedule: Q01DX009 (ip), vehicle: saline
[8] = dose: 100.0 mg/kg/injection, schedule: Q01DX009 (ip), vehicle: saline
[9] = dose: 120.0 mg/kg/injection, schedule: Q01DX005 (ip), vehicle: Klucel (hydroxypropylcellulose) (HPC)
[10] = dose: 240.0 mg/kg/injection, schedule: Q01DX005 (ip), vehicle: Klucel (hydroxypropylcellulose) (HPC)
[11] = dose: 50.0 mg/kg/injection, schedule: Q01DX009 (ip), vehicle: Klucel (hydroxypropylcellulose) (HPC)
[12] = dose: 100.0 mg/kg/injection, schedule: Q01DX009 (ip), vehicle: Klucel (hydroxypropylcellulose) (HPC)
[13] = dose: 200.0 mg/kg/injection, schedule: Q01DX009 (ip), vehicle: Klucel (hydroxypropylcellulose) (HPC)
[14] = dose: 100.0 mg/kg/injection, schedule: Q01DX005 (ip), vehicle: saline with Tween-80
[15] = dose: 200.0 mg/kg/injection, schedule: Q01DX005 (ip), vehicle: saline with Tween-80

SMILES: CCN(CC)C(Cc1ccccc1)=NC(C)(C)C
- survivor count [1]: 0 of 6

SMILES: CCN(CC)CCCC(C)Nc1nncc2cc(Cl)ccc12 (centres undefined)
- survivor count [2]: 0 of 6

SMILES: COc1cccc2c1C(=O)c1c(O)c3c(c(O)c1C2=O)CC(O)(c1cscn1)CC3OC1CC(N)C(O)C(C)O1 (centres undefined)
- survivor count (dose: 200.0 mg/kg/injection, schedule: Q04DX003 (ip), vehicle: water): 1 of 3

SMILES: O=C1N(Br)C(=O)C(c2ccc(Cl)cc2)(c2ccc(Cl)cc2)N1Br
- T/C (dose: 16.5 mg/kg/injection, schedule: Q01DX009 (ip), vehicle: saline with Tween-80): 136 % of control
- T/C [3]: 136 % of control
- T/C (dose: 37.5 mg/kg/injection, schedule: Q01DX009 (ip), vehicle: saline with Tween-80): 145 % of control
- T/C (dose: 44.0 mg/kg/injection, schedule: Q01DX009 (ip), vehicle: saline with Tween-80): 131 % of control
- T/C (dose: 66.0 mg/kg/injection, schedule: Q01DX009 (ip), vehicle: saline with Tween-80): 145 % of control
- T/C [4]: 136 % of control

SMILES: CCCCCC(CN(C)C)C(/C=C/c1ccc(Cl)c(Cl)c1)=N\O (centres undefined)
- survivor count [5]: 1 of 6

SMILES: CN(C)C1=NC(NCCc2ccccc2)(N(C)C)OC(N(C)C)=N1 (centres undefined)
- survivor count [2]: 0 of 6

SMILES: C=CC(N)[Si](CC)(CC)CC (centres undefined)
- survivor count [6]: 0 of 6

SMILES: CC(C)CC(=O)CC1(C)CCC(c2ccoc2)O1 (centres undefined)
- survivor count [1]: 0 of 6

SMILES: C[N+]1(CCC(=O)c2ccccc2)CCCCC1
- survivor count [7]: 3 of 6
- survivor count [8]: 0 of 6

SMILES: Nc1ccccc1SC(C[N+](=O)[O-])c1ccc2c(c1)OCO2 (centres undefined)
- survivor count [6]: 4 of 6

SMILES: C[Si]1(C)N[Si](C)(C)N[Si](C)(C)N1
- survivor count (dose: 400.0 mg/kg/injection, schedule: Q01DX009 (ip), vehicle: saline with Tween-80): 0 of 6

SMILES: Cc1ccc(S(=O)(=O)NC(=O)NC(C)Cc2ccccc2)cc1 (centres undefined)
- survivor count [4]: 6 of 6

SMILES: O=C(O)CC1OCC=C2CN3CCC45c6ccccc6NC4C1C2CC35 (centres undefined)
- survivor count (dose: 3.75 mg/kg/injection, schedule: Q01DX005 (ip), vehicle: Klucel (hydroxypropylcellulose) (HPC)): 0 of 6
- survivor count (dose: 7.5 mg/kg/injection, schedule: Q01DX005 (ip), vehicle: Klucel (hydroxypropylcellulose) (HPC)): 0 of 6
- survivor count (dose: 15.0 mg/kg/injection, schedule: Q01DX005 (ip), vehicle: Klucel (hydroxypropylcellulose) (HPC)): 0 of 6
- survivor count (dose: 30.0 mg/kg/injection, schedule: Q01DX005 (ip), vehicle: Klucel (hydroxypropylcellulose) (HPC)): 0 of 6
- survivor count (dose: 60.0 mg/kg/injection, schedule: Q01DX005 (ip), vehicle: Klucel (hydroxypropylcellulose) (HPC)): 0 of 6
- survivor count (dose: 60.0 mg/kg/injection, schedule: Q01DX005 (ip), vehicle: saline with Tween-80): 0 of 6
- survivor count [9]: 0 of 6
- survivor count (dose: 120.0 mg/kg/injection, schedule: Q01DX005 (ip), vehicle: saline with Tween-80): 0 of 6
- survivor count [10]: 0 of 6
- survivor count [6]: 0 of 6

SMILES: O=C1OI(OI2OC(=O)c3ccccc32)c2ccccc21
- T/C [9]: 126 % of control [5 of 6 alive]
- survivor count [10]: 0 of 6

SMILES: Nc1ncc[nH]c1=O
- survivor count [5]: 3 of 6

SMILES: CCCCN(CCCC)C(=N)c1c(OC)cccc1OC
- survivor count (dose: 6.25 mg/kg/injection, schedule: Q01DX005 (ip), vehicle: saline): 2 of 5
- survivor count (dose: 12.5 mg/kg/injection, schedule: Q01DX005 (ip), vehicle: saline): 0 of 5
- survivor count (dose: 25.0 mg/kg/injection, schedule: Q01DX005 (ip), vehicle: saline): 0 of 5
- survivor count (dose: 50.0 mg/kg/injection, schedule: Q01DX005 (ip), vehicle: saline): 0 of 5
- survivor count (dose: 100.0 mg/kg/injection, schedule: Q01DX005 (ip), vehicle: saline): 0 of 5
- survivor count [2]: 0 of 5

SMILES: ClCCN(CCCl)c1ccc(CCCCN2CCCCC2)cc1
- T/C (dose: 1.56 mg/kg/injection, schedule: Q01DX009 (ip), vehicle: Klucel (hydroxypropylcellulose) (HPC)): 129 % of control
- T/C (dose: 3.13 mg/kg/injection, schedule: Q01DX009 (ip), vehicle: Klucel (hydroxypropylcellulose) (HPC)): 147 % of control
- T/C (dose: 6.25 mg/kg/injection, schedule: Q01DX009 (ip), vehicle: Klucel (hydroxypropylcellulose) (HPC)): 126 % of control
- T/C (dose: 12.5 mg/kg/injection, schedule: Q01DX009 (ip), vehicle: Klucel (hydroxypropylcellulose) (HPC)): 132 % of control
- survivor count (dose: 25.0 mg/kg/injection, schedule: Q01DX009 (ip), vehicle: Klucel (hydroxypropylcellulose) (HPC)): 6 of 6
- survivor count [11]: 0 of 6
- survivor count [12]: 0 of 6
- survivor count [13]: 0 of 6

SMILES: CCOC(=O)C/C(C)=N\N(C)C(N)=O
- survivor count [5]: 6 of 6

SMILES: CN1CCC(c2ccccc2)=C(Br)C1
- survivor count (dose: 240.0 mg/kg/injection, schedule: Q01DX005 (ip), vehicle: saline): 0 of 6

SMILES: NC(=S)n1nc(-c2ccccc2)c(N=Nc2ccc([N+](=O)[O-])cc2)c1-c1ccccc1
- survivor count (dose: 200.0 mg/kg/injection, schedule: Q04DX002 (ip), vehicle: saline with Tween-80): 5 of 5

SMILES: CCCCCCSc1nc2ccc(NC(C)=O)cc2s1
- survivor count [13]: 6 of 6

SMILES: CCCCCCCCCCCCCCCCCCSc1c(OC)c(OC(C)=O)c(OC)c(OC)c1OC(C)=O
- survivor count (dose: 2.0 mg/kg/injection, schedule: Q01DX009 (ip), vehicle: Klucel (hydroxypropylcellulose) (HPC)): 6 of 6

SMILES: Cc1cc(N(CC(C)Br)CC(C)Br)ccc1N=Nc1ccccc1C(=O)O (centres undefined)
- survivor count [3]: 4 of 6
- T/C (dose: 25.0 mg/kg/injection, schedule: Q01DX009 (oral), vehicle: saline with Tween-80): 130 % of control

SMILES: CCn1c(=O)c2n[nH]nc2n(CCO)c1=O
- survivor count [13]: 6 of 6

SMILES: NNc1nc2ccccc2s1
- survivor count (dose: 50.0 mg/kg/injection, schedule: Q01DX009 (ip), vehicle: saline with Tween-80): 3 of 6
- survivor count [4]: 0 of 6
- survivor count [1]: 0 of 6

SMILES: CC(=O)CC(c1ccccc1)C(Sc1ccccc1)(Sc1ccccc1)Sc1ccccc1 (centres undefined)
- survivor count [12]: 6 of 6

SMILES: C/C(=N\NC(=S)N1CCCCCC1)c1cccc(C)n1
- T/C (dose: 50.0 mg/kg/injection, schedule: Q01DX005 (ip), vehicle: saline with Tween-80): 126 % of control
- survivor count [14]: 3 of 6 and 3 of 5
- survivor count [15]: 0 of 6

SMILES: CN(C)C1CS(=O)(=O)OC2=C1COCC2 (centres undefined)
- survivor count [6]: 2 of 6

SMILES: N#CSc1ccc2nc(NC(NC(=O)c3ccccc3)C(Cl)(Cl)Cl)sc2c1 (centres undefined)
- survivor count [11]: 6 of 6
- survivor count [12]: 6 of 6
- survivor count [13]: 5 of 6

SMILES: CCCCCCCCCC[N+]1(CC)CCCC1
- survivor count (dose: 12.5 mg/kg/injection, schedule: Q01DX009 (ip), vehicle: saline): 2 of 6
- survivor count [7]: 0 of 6
- survivor count [8]: 1 of 6
- survivor count [5]: 0 of 6

SMILES: Cc1[nH]c2ccccc2c1CC[n+]1cccc(C#N)c1
- survivor count (dose: 25.0 mg/kg/injection, schedule: Q01DX005 (ip), vehicle: Klucel (hydroxypropylcellulose) (HPC)): 2 of 6
- survivor count (dose: 50.0 mg/kg/injection, schedule: Q01DX005 (ip), vehicle: Klucel (hydroxypropylcellulose) (HPC)): 0 of 6
- survivor count (dose: 100.0 mg/kg/injection, schedule: Q01DX005 (ip), vehicle: Klucel (hydroxypropylcellulose) (HPC)): 0 of 6
- survivor count (dose: 200.0 mg/kg/injection, schedule: Q01DX005 (ip), vehicle: Klucel (hydroxypropylcellulose) (HPC)): 0 of 6

SMILES: CCN(CC)CCNc1ncnc2c1cnn2C
- survivor count [14]: 0 of 5
- survivor count [15]: 0 of 5
